Measured values taken from publication PMC12627471.
No constants are given. Whether binding was seen depends on the method and setting. Binding seen in cells or lysates may run through a third protein. A yes stands for co-enrichment or nearness to the bait. Other partners may have been found.

Chains of the proteins cited; added tags and fusions are not shown.
UniProt P14618: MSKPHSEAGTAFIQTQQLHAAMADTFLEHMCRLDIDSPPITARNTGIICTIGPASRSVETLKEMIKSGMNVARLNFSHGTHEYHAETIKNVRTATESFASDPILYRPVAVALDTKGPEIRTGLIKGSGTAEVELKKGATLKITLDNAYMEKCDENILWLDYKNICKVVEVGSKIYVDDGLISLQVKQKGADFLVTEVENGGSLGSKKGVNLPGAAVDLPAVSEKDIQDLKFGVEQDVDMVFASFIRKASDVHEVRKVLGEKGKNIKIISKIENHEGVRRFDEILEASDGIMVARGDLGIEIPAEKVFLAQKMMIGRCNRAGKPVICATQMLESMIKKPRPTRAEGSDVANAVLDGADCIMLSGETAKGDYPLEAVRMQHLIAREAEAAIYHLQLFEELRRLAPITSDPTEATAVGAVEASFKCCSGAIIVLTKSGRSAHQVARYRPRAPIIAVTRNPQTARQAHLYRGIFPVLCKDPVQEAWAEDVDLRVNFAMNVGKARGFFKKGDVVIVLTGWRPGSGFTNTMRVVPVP

Target: T1, Transketolase (TKT) (human) (UniProt P29401)
T1 sequence: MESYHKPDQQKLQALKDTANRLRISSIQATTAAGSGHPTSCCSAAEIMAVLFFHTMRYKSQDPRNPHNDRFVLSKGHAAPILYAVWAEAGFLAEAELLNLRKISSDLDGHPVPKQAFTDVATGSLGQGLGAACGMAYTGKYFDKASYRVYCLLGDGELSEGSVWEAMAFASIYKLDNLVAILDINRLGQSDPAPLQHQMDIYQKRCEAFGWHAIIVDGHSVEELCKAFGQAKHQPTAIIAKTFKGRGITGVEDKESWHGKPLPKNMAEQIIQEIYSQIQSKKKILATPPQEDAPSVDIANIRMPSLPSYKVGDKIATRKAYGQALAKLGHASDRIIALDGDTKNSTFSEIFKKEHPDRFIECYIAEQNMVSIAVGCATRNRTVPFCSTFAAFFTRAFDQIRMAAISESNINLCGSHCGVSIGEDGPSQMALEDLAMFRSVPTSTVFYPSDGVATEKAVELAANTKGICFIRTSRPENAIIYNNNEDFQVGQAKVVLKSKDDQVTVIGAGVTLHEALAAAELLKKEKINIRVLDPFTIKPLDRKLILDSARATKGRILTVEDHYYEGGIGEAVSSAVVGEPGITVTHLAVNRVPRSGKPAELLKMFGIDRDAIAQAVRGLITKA
Assay: affinity purification with mass spectrometry; immunoprecipitation-mass spectrometry of TKT-binding proteins in RCC cells; cell line and antibody not stated

binding: binds
Substance: Pyruvate kinase M2 (PKM2) (from UniProt P14618 1-531) (enzyme)
